As usually defined, the IC50 is the midpoint of a concentration-inhibition curve.

This experiment deals with MCF-7 cell line. Nature of the experiment: MTT cytotoxicity assay in breast cancer cell line (MCF-7). The format is cell-based. The conditions noted are these: Homo sapiens, MCF7, 24 h treatment, mean ± SD, read-out: IC50 on MCF-7 cell lines. The method, then: The cytotoxic effect of the isolated compounds from C. papaya on MCF-7 cells line was evaluated using MTT assay which measures metabolic activity as an indicator of cellular viability and proliferation.
Briefly, breast cancer cell line (MCF-7) were obtained from American Type Culture Collection and cultured in DMEM medium (Invitrogen/Life Technologies) supplemented with 10% FBS (Hyclone, USA). Insulin (10 μg mL^−1, Sigma-Aldrich, USA) and 1% penicillin–streptomycin. the cells were seeded in 96-well plates (VWR, Switzerland) at cell density 1.2–1.8 × 10^4 cells per well. […] After treatments, the medium was removed from all wells of the plate and 20 μL of the MTT reagent (Sigma-Aldrich, USA) (0.5 mg mL^−1) in PBS was added and incubated for 3.5 h at 37 °C. The solution was removed and 50 μL of DMSO was added, incubated for 5 min and the absorbance was measured at 570 nm.
Results are expressed as mean ± standard deviation (SD) based on triplicate experiments. The IC50 values of the tested compounds were determined using curve fitting in the R programming language and associated packages including Magrittr,[45] drc[46] and ggplot2.[47] Graphs and figures were generated using R console and PyMOL (PyMOL Molecular Graphics System, Schrödinger).
On the technique in general: Tetrazolium assays rely on reduction of a dye to a coloured formazan, in cell work by metabolically active cells.

As to `CN[C@@H]1C[C@H]2O[C@@](C)([C@@H]1OC)n1c3ccccc3c3c4c(c5c6ccccc6n2c5c31)C(=O)NC4` [Staurosporine, reference compound], the IC50 is 10.2 ± 0.58 µM.

The values above are taken from paper PMC8985094, “Chemical constituents from Carica papaya Linn. leaves as potential cytotoxic, EGFR^wt and aromatase (CYP19A) inhibitors; a study supported by molecular docking” (RSC Advances, 2022).
